# PubChem BioAssay AID504764 – Drosophila RNAi Screening Center, 2011
# Assay: 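Genome-wide screen for regulators of Notch-driven gene expression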 (primary screen)
# System: Drosophila Kc167 cells
# Knock-down reagent: long dsRNA against Drosophila genes
# Timing: about 5 days (4 days dsRNA, then 24 h after transfection)
# Challenge: transfection of constitutively active membrane-tethered Notch lacking the extracellular domain, read 24 h later
# Read-out: 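Firefly luciferase from an E(spl)m3 reporter with active Notch, plus control-promoter and uninduced reporter wells for normalisation; unnormalised counts, duplicate wells a and b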
# Scale: induced reporter light, run 1, well a and induced reporter light, run 1, well b: higher = more light from the Notch target reporter with active Notch; control promoter light, run 1, well a and control promoter light, run 1, well b: higher = more light from the viral control promoter (cell number, transfection, viability); uninduced reporter light, run 1, well a: higher = more light from the Notch target reporter without active Notch
# Call rule: 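Wells with low control signal or poorly matching duplicates excluded; duplicates averaged; per source plate, z beyond ±2 for induced/control log2 ratio or beyond ±1.8 for induced/uninduced marks a hit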
# Calls: active = modifier hit (raised or lowered Notch signal); inactive = not a hit
# In all, the deposit lists about 22,000 reagents; below is a random part of those with a known target gene and a result. In the full data, 403 (1.9%) were called active. 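Unnormalised raw counts per well; ratio z-scores behind the hit calls and whether each hit raises or lowers signal are not deposited.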 A number with no mark means an inactive call. Not stated in the record: the amount of reagent.
gene,DRSC id,"induced reporter light, run 1, well a","induced reporter light, run 1, well b","control promoter light, run 1, well a","control promoter light, run 1, well b","uninduced reporter light, run 1, well a"
CG4691,DRSC01950,2.06e5,2.07e5,1.22e5,1.34e5,14785
CG9095,DRSC20150,91620,95380,1.06e5,1.45e5,14740
mRpS21 (mitochondrial ribosomal protein S21),DRSC12965,2.26e5,2.19e5,2.47e5,2.35e5,15210
CG1537,DRSC19662,1.46e5,1.34e5,3.09e5,2.66e5,10425
fws (four way stop),DRSC02969,1.49e5,1.71e5,1.36e5,1.56e5,11910
CG15306,DRSC17993,1.00e5,87450,1.19e5,1.11e5,5260
CG15306,DRSC18240,65675,58230,63320,70115,5070
CG10962,DRSC18421,1.79e5,1.67e5,2.03e5,1.87e5,12885
CG5687,DRSC08568,45760,35100,55830,51760,3915
M1BP (Motif 1 Binding Protein),DRSC16566,32495,22700,19860,17795,6140
ics (icarus),DRSC01878,2.27e5,2.67e5,1.98e5,2.22e5,17590
CR31824 (pseudo),DRSC01517,77330,77730,75105,70225,5665
babos,DRSC03923,83430,64160,65230,72570,8110
babos,DRSC04397,1.83e5,2.14e5,1.64e5,1.87e5,13790
CG15498,DRSC15040,1.70e5,1.59e5,2.00e5,2.00e5,10905
CG5157,DRSC10488,2.03e5,1.85e5,2.53e5,1.94e5,8970
Nufip,DRSC10397,1.25e5,1.28e5,1.05e5,1.29e5,11582
klu (klumpfuss),DRSC11357,1.53e5,1.40e5,1.61e5,1.31e5,8170
eloF (elongase F),DRSC15162,1.24e5,1.03e5,1.13e5,80205,5620
Cmtr1 (Cap methyltransferase 1),DRSC18400,1.33e5,1.32e5,2.90e5,2.20e5,11485
Faf2 (Fas-associated factor 2),DRSC03325,2.47e5,3.25e5,2.46e5,2.66e5,19830
SecS (Sec synthetase),DRSC12222,1.17e5,1.15e5,97765,96510,6020
GABA-B-R2 (metabotropic GABA-B receptor subtype 2),DRSC14134,1.73e5,2.13e5,2.62e5,2.67e5,16445
CG7763,DRSC07043,1.14e5,1.12e5,1.20e5,1.24e5,9628
CAH5 (Carbonic anhydrase 5),DRSC15372,1.96e5,1.79e5,2.23e5,2.30e5,16875
Slob (retired record),DRSC03436,1.86e5,1.59e5,1.72e5,1.72e5,18160
Sdr (Secreted decoy of InR),DRSC15517,1.10e5,1.11e5,81620,80600,8920
CG12464,DRSC06156,1.02e5,93005,1.32e5,1.20e5,9455
Rad51D (Rad51 recombinase D),DRSC06840,1.39e5,1.70e5,2.25e5,1.82e5,13545
CG12935,DRSC06248,1.43e5,1.39e5,1.48e5,1.29e5,12890
TTLL3A (Tubulin tyrosine ligase-like 3A),DRSC02143,1.35e5,1.21e5,1.92e5,1.63e5,9330
Amnionless,DRSC00317,1.50e5,1.06e5,1.00e5,68960,9920
CG14720,DRSC14942,51680,52995,46240,40810,4070
CG42382,DRSC07671,2.10e5,1.92e5,2.51e5,1.91e5,16395
